Experimental data taken from PubChem BioAssay AID1347076 (National Center for Advancing Translational Sciences (NCATS), 2019).
“And” between values parts separate entries of the source, which are not always exact repeats. Equal values may be shown once. The whole screen tested about 400,000 compounds, of which about 13,000 (3.2%) were called active. The shares of active, inactive and inconclusive entries below differ from those in the screen. The call rests on the fitted dose curve; in most records, active means well fitted cell-killing curve with a large enough effect; inconclusive means small, poorly fitted or top-dose-only effect, or effect the other way; inactive means flat fitted curve, though single readings scatter. Potencies of inconclusive entries are doubtful fits and often do not repeat.
On the % scale 0 is the no-effect control and ±100 the full control effect; potency means the concentration at half of the fitted maximal effect.

Test: qHTS assay for MDR1-selective chemotherapeutics: Primary screen using the drug-selected MDR subline cells KB-V1; further: nearly all actives have a fitted effect of over 60% in size
Details: KB-V1 MDR cells viability, CellTiter-Glo, 72 h; activity change, negative = cytotoxicity: at 46.1 µM (top of the series)
Procedure, shortened: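 Cytotoxicity toward P-gp-expressing KB-V1 cells was determined as loss of CellTiter-Glo luminescence after 72 h at 37 degrees C. Compounds were tested in quantitative HTS format across a concentration range, with curves fitted to normalized data.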
In the case of `CC(=O)N1CCc2c(sc3c2c(=O)n(-c2ccccc2)c(=O)n3CC(=O)c2ccccc2)C1`, the Potency is reported as inconclusive: 10.3 µM [rising, partial curve, poor fit]. In the case of `CCOC(=O)c1c(-c2ccc(C)cc2)csc1/N=C(\C)C1=C(O)c2ccccc2C1=O`, the Potency is reported as inconclusive: 5.17 µM [cytotoxic, partial curve]. In the case of `COc1ccc(NC(=O)Nc2cc(-c3cn4cccnc4n3)ccc2C)cc1`, the Potency is reported as “inactive”. In the case of `O=C(NC1CCN(Cc2ccccc2)CC1)c1ccc(Cn2c(=O)c3ccccc3n(Cc3ccc(Cl)cc3)c2=O)cc1`, the Potency is reported as inconclusive: 29.1 µM [cytotoxic, partial curve, poor fit]. In the case of `Cc1cc(N/N=C2/CCCc3ccccc32)nc2ccccc12`, the Potency is reported as inconclusive: 18.4 µM [cytotoxic, single point]. For `CC(=O)Nc1cccc(-c2ccnc3c2CC(C)(C(=O)Nc2cccc(Oc4ccccc4)c2)O3)c1` (configuration not stated), the Potency was active: 20.6 µM. For `CC(C)c1cc(Cn2c3ccccc3c(=O)n2C(C)Cn2cc(-c3ccc(C(C)(C)C)cc3)nn2)on1` (configuration not stated), the Potency was inconclusive: 8.2 µM [cytotoxic, partial curve]. With `O=C(CCCCn1c(=O)c2ccccc2n(Cc2cccc(F)c2)c1=O)NCCc1ccccc1` the Potency was “inactive”. In the case of `COc1ccccc1NC(=O)Cn1c(C)cc(C)c(C#N)c1=O`, the Potency is reported as inconclusive: 29.1 µM [rising, single point]. With `O=c1cc(-c2ccccc2)[nH]c2cc(F)ccc12` the Potency was inconclusive: 3.66 µM [cytotoxic, partial curve, poor fit]. In the case of `Cc1ccc(NC(=O)CSc2ccc(-c3ccco3)nn2)cc1`, the Potency is reported as inconclusive: 29.1 µM [cytotoxic, single point]. With `C=CCn1c(C)cc(C(=O)CSc2nnc(Cc3ccccc3)o2)c1C` the Potency was “inactive”. In the case of `CC(C)(C)c1ccc(S(=O)(=O)/N=C2\C=C(NS(=O)(=O)c3ccccc3)C(=O)c3ccccc32)cc1`, the Potency is reported as “inactive”. With `Cc1ccc2c(c1)-c1nc(-c3ccc4c(c3)NC(=O)CO4)cc(-c3ccccc3)c1CO2` the Potency was “inactive”. For `CC(=O)N1CCC(N(Cc2ccc(C)o2)C(=O)Nc2cccc(C(F)(F)F)c2)CC1`, the Potency was inconclusive: 5.8 µM [cytotoxic, full curve, poor fit]. For `O=C(c1ccco1)c1cn(CC(=O)N2CCCCCC2)c2ccccc12`, the Potency was inconclusive: 3.66 µM [cytotoxic, partial curve, poor fit]. In the case of `CC(C)(C)c1nnc(N/N=C/c2ccccc2)n(N)c1=O`, the Potency is reported as inconclusive: 16.4 µM [cytotoxic, partial curve]. For `O=C(C1=C[C@@H](c2coc3ccccc3c2=O)C[C@@H](OCc2ccc(CO)cc2)O1)N1CCCCCCC1`, the Potency was “inactive”. With `N#Cc1ccccc1S(=O)(=O)N1CCN(CC(O)CN2CCOCC2)CC1` (configuration not stated) the Potency was inconclusive: 29.1 µM [rising, single point]. For `COc1ccc(CCNCc2csc3nc4ccccc4n23)cc1OC`, the Potency was inconclusive: 0.13 µM [cytotoxic, full curve]. In the case of `COc1ccc(S(=O)(=O)c2c[nH]c(=S)[nH]c2=O)cc1Cl`, the Potency is reported as inconclusive: 8.2 µM [rising, partial curve]. With `O=C(NNS(=O)(=O)c1ccccc1[N+](=O)[O-])c1cc2ccccc2cc1O` the Potency was inconclusive: 29.1 µM [cytotoxic, single point]. For `CN(C)c1ccc(/C=N/NC(=O)COc2ccccc2)cc1`, the Potency was inconclusive: 0.0065 µM [cytotoxic, full curve]. In the case of `O=C(CN1CCN(c2ccc(O)cc2)CC1)Nc1cc(S(=O)(=O)N2CCOCC2)ccc1Cl`, the Potency is reported as inconclusive: 29.1 µM [cytotoxic, single point]. With `COc1ccc(C(=O)NCCC(C)C)cc1S(=O)(=O)N1CCOCC1` the Potency was inconclusive: 11.6 µM [cytotoxic, partial curve]. In the case of `CC(C)c1nnc(SCC(=O)NCCC2=CCCCC2)n1N`, the Potency is reported as inconclusive: 29.1 µM [cytotoxic, single point]. For `Cc1cccc(C)c1-n1ncc(C(=O)NCCCN2CCC(C)CC2)c1C1CCN(C(=O)OC(C)(C)C)CC1`, the Potency was “inactive”. With `Cc1cc(Nc2ccc(Br)cc2)nc(C)n1` the Potency was inconclusive: 25.9 µM [cytotoxic, single point]. For `CC[C@H](C)[C@@H]1NC(=O)c2cc([N+](=O)[O-])cc(F)c2NCCCC[C@@H](C(N)=O)NC(=O)[C@H](CCCCN)NC1=O`, the Potency was inconclusive: 16.4 µM [rising, single point]. With `N#C/C(=C/c1cccs1)c1ccccn1` the Potency was “inactive”. For `COc1cc2c(c(OC)c1OC)-c1ccc(NC(=O)c3ccc(F)cc3)c(=O)cc1[C@@H](NC(C)=O)CC2`, the Potency was “inactive”. With `CSc1n[nH]c(-c2ccco2)n1` the Potency was “inactive”. With `CCOC(=O)c1cnc2c(ccc3ccccc32)c1Nc1ccc(C(C)=O)cc1` the Potency was active: 16.4 µM. With `CCOC(=O)c1c(NC(=O)CN2C(=O)NC3(CCCCC3)C2=O)sc(C)c1-c1ccc(C)cc1` the Potency was active: 20.6 µM. With `COc1ccccc1C(=O)NCCC(=O)N1CCCCCCC1` the Potency was inconclusive: 20.6 µM [cytotoxic, partial curve, poor fit]. For `Cc1c(-c2ccc(F)cc2)[n+](=O)c(-c2ccc(F)cc2)c(C)n1[O-]`, the activity change, negative = cytotoxicity was inconclusive: -32.8%. In the case of `NC(=O)N/N=C/c1c(Sc2nnnn2-c2ccccc2)nc2ccccn2c1=O`, the Potency is reported as “inactive”. With `Cc1ccc(-n2nc3c4c(cccc4c2=O)-c2ccccc2-3)cc1` the Potency was active: 8.2 µM. For `COc1ccc(C2C(C(=O)C(C)(C)C)=C(O)C(=O)N2Cc2ccccc2)cc1` (configuration not stated), the Potency was inconclusive: 29.1 µM [cytotoxic, single point]. With `O=C(O)c1ccc(N/N=C/c2ccc3c(c2)OCO3)cc1` the Potency was inconclusive: 20.6 µM [cytotoxic, single point]. In the case of `Cc1c(/C(O)=C2\C(=O)C(=O)N(CCN(C)C)C2c2ccccc2)cnn1-c1ccccc1` (configuration not stated), the Potency is reported as inconclusive: 7.31 µM [rising, partial curve, poor fit]. With `CC12CCC(C(=Nc3ccc(N=C4C(=O)C5(C)CCC4C5(C)C)cc3)C1=O)C2(C)C` the Potency was “inactive”. For `C[C@H]1CN(CCc2ccccc2)C(=O)[C@@H]1CC(=O)NCc1ccccc1`, the Potency was inconclusive: 16.4 µM [cytotoxic, single point] and inconclusive: 4.11 µM [cytotoxic, partial curve]. In the case of `COc1ccc(N=C2SCC(=O)N2Cc2ccccc2)cc1`, the Potency is reported as inconclusive: 25.9 µM [cytotoxic, single point]. In the case of `O=S(=O)(c1ccc(Cl)cc1)c1nc(-c2cccs2)oc1N1CCCCC1`, the Potency is reported as inconclusive: 5.17 µM [cytotoxic, full curve]. With `C=CCn1cc(C(=O)NCC2CCCO2)c(=O)c2cc(S(=O)(=O)N3CCCCCC3)ccc21` (configuration not stated) the Potency was inconclusive: 10.3 µM [cytotoxic, partial curve, poor fit]. For `COc1ccccc1CNC(=O)Cc1csc2nc(-c3ccc(F)cc3)cn12`, the Potency was “inactive”. In the case of `O=C(NC(c1ccc(F)cc1)c1ccc2ccccc2n1)C1CCN(CCOc2ccc(F)cc2)CC1` (configuration not stated), the Potency is reported as active: 18.4 µM. With `Cc1cc(NC(=O)CCC(=O)N(CC(=O)NCC2CCCO2)c2ccc3c(c2)OCCO3)no1` (configuration not stated) the Potency was inconclusive: 7.31 µM [rising, partial curve, poor fit]. For `C#CCN(C[C@@H]1[C@@H](OC(=O)NCCCCCC)[C@@H](OC(=O)NCCCCCC)Cn2c(=O)ccc(=O)n21)S(=O)(=O)c1ccc(C)cc1`, the Potency was “inactive”. With `c1ccc(N2CCN(c3ncnc4scc(-c5cccs5)c34)CC2)cc1` the Potency was inconclusive: 20.6 µM [cytotoxic, single point]. With `O=c1cc(SCc2ccccc2)nc[nH]1` the Potency was “inactive”. In the case of `Cc1ccc(C(=O)N/N=C\c2sccc2C)cn1`, the Potency is reported as inconclusive: 18.4 µM [rising, single point]. In the case of `COc1cccc(C(C)(O)c2nc(-c3ccc(F)cc3OC)cs2)c1` (configuration not stated), the Potency is reported as “inactive”. For `CCN(CC(=O)NCc1ccc(F)cc1)CC(=O)Nc1ccc(Br)cc1F`, the Potency was inconclusive: 18.4 µM [cytotoxic, partial curve, poor fit]. In the case of `COC(=O)c1ccc(C(=O)OC)c(NC(=S)N2CCCC(C)C2)c1` (configuration not stated), the Potency is reported as active: 18.4 µM. For `Cc1cc(C)nc(-n2nc(C)c3c2N(Cc2ccccc2F)C(=O)CC3c2ccc(Cl)cc2)n1` (configuration not stated), the Potency was “inactive”. For `CCc1cc(=O)oc2cc(C)c(CN3CCCC(C)C3)c(O)c12` (configuration not stated), the Potency was inconclusive: 14.6 µM [cytotoxic, partial curve, poor fit]. For `COc1cccc(NC(=O)CCN2C(=O)c3ccccc3Sc3ncccc32)c1`, the activity change, negative = cytotoxicity was inconclusive: -39.2% [cytotoxic]. With `CC1CN(CC(=O)Nc2ccc(S(N)(=O)=O)cc2)CC(C)O1` (configuration not stated) the Potency was inconclusive: 16.4 µM [rising, single point]. In the case of `CCCn1c(C2CC(=O)N(c3cc(OC)ccc3OC)C2)nc2ccccc21` (configuration not stated), the Potency is reported as “inactive”. In the case of `Cc1nc(NC(=S)NC(=O)COc2ccc(Cl)cc2)ccc1Br`, the Potency is reported as inconclusive: 18.4 µM [cytotoxic, partial curve, poor fit]. With `Cc1nc2cc(NS(=O)(=O)c3cccc4cccnc34)ccc2s1` the Potency was inconclusive: 7.31 µM [cytotoxic, partial curve]. For `COc1ccccc1N(CC(=O)NC1CCCC1)C(=O)c1oc(C(C)(C)C)cc1C`, the Potency was inconclusive: 5.17 µM [cytotoxic, partial curve, poor fit]. For `O=C(O)CSc1nnc(-c2ccco2)o1`, the Potency was “inactive”. For `CCCCCn1c(N2CCCC2)nc2c1c(=O)n(C)c(=O)n2C`, the Potency was inconclusive: 14.6 µM [cytotoxic, partial curve]. In the case of `O=C(N/N=C/c1ccc([N+](=O)[O-])o1)C(=O)Nc1ccc(C(=O)O)cc1`, the Potency is reported as inconclusive: 9.2 µM [rising, partial curve, poor fit].
